# Test results published in PubChem BioAssay AID1347075 (National Center for Advancing Translational Sciences (NCATS), 2019).
# Screen size: about 400,000 compounds; about 5,500 (1.4%) were called active. This list was built around the results that the source calls inconclusive (neither active nor inactive); the mix of calls is not that of the screen. Calls come from the whole dose curve; as a rule, active = well fitted cell-killing curve with a large enough effect; inconclusive = small, poorly fitted or top-dose-only effect, or effect the other way; inactive = flat fitted curve, though single readings scatter. A potency beside an inconclusive call is a rough fit, not a confirmed value.
# Experiment: qHTS assay for MDR1-selective chemotherapeutics: Primary screen using the parental adenocarcinoma cell KB-3-1; note: nearly all actives have a fitted effect of over 60% in size
# Settings: KB-3-1 viability, CellTiter-Glo ATP luminescence, 72 h; activity change, negative = cytotoxic: at 46.1 µM (top of the series)
# Procedure, shortened: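 Here the drug-naive KB-3-1 line serves as comparator for MDR sub-line selectivity; cells received compound titrations, 72 h at 37 °C, then CellTiter-Glo readout.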
# % is set by controls: 0 for no effect and ±100 for the full control effect; potency is the fitted concentration of half-maximal effect.
Compound,Potency,"activity change, negative = cytotoxic"
O=C(CCCn1c(=O)c2ccccc2n(Cc2ccccc2)c1=O)NCc1ccco1,"inconclusive: 29.1 µM [cytotoxic, single point]",
COc1ccc(NC(=O)N(C)[C@H]2C[C@H]3c4[nH]c5ccc(-c6ccc(OC)cc6)cc5c4CCN3C(=O)[C@H]2[C@H](C)O)cc1,"inconclusive: 9.2 µM [cytotoxic, partial curve, poor fit]",
O=C(C1=C[C@@H](c2csc3ccccc23)C[C@@H](OCc2ccc(CO)cc2)O1)N1CCN(Cc2ccc3c(c2)OCO3)CC1,"inconclusive: 20.6 µM [cytotoxic, single point]",
COc1ccc(Br)cc1CNC(=O)Cc1cccs1,,inactive: 2.52%
Clc1ccc(C(c2nnnn2CCc2ccccc2)N2CCSCC2)cc1 (stereo not given),"inconclusive: 20.6 µM [cytotoxic, single point]",
COc1cccc(-c2c(-c3cc(OC)cc(OC)c3)n(C)c3ccc(-c4cnc(OC)nc4)cc23)c1,active: 13 µM,
CCOC(=O)c1c(-c2ccccc2)oc2ccc(NS(=O)(=O)c3ccc(C)cc3)cc12,"inconclusive: 16.4 µM [cytotoxic, single point]",
CN(C)S(=O)(=O)c1cccc(NC(=O)COc2ccccc2C(=O)Nc2ccccc2)c1,"inconclusive: 29.1 µM [cytotoxic, single point]",
O=C(Nc1nncs1)C1CC(=O)N(C2CCCC2)C1 (stereo not given),,inconclusive: -6.75%
COc1ccc(-c2cnc(SCC(=O)Nc3nc(C(C)(C)C)cs3)n2Cc2ccco2)cc1,"inconclusive: 7.31 µM [cytotoxic, single point]",
CC(=O)Nc1ccc(S(=O)(=O)NNC(=O)c2sc(=S)n(C)c2C)cc1,,inconclusive: 30.5%
Cc1ccnc(NC(c2cccc(O)c2)c2ccc3ccc(C)nc3c2O)c1 (stereo not given),"inconclusive: 0.0517 µM [rising, full curve]",
Cc1nc(NC(=O)c2ccc(Cl)cc2)nc2cc3c(cc12)OCO3,,inactive: 15.1%
CC(O)C(=O)N/N=C/c1cccc2ccccc12 (stereo not given),"inconclusive: 20.6 µM [cytotoxic, single point]",
Cc1cc(=O)c(C(=O)Nc2cccc(C(=O)NC3CC3)c2)nn1-c1ccccc1Cl,"inconclusive: 0.092 µM [rising, full curve]",
Cc1ccc(CNc2nc(C)cs2)cc1,,inactive: 2.05%
COc1ccc(-c2onc(C)c2C)cc1S(=O)(=O)NCCc1ccco1,"inconclusive: 20.6 µM [cytotoxic, single point]",
O=C1CCC(C(=O)N2CCCC(C(=O)c3ccc4c5c(cccc35)CC4)C2)=NN1 (stereo not given),active: 14.6 µM,
COc1ccc(OC)c(NC(=O)CSc2nnnn2-c2ccc3c(c2)OCO3)c1,"inconclusive: 29.1 µM [cytotoxic, single point]",
CC(C)(C)CC(C)(C)NCC(O)COc1c(F)cc(Br)cc1F (stereo not given),"inconclusive: 23.1 µM [cytotoxic, single point]",
CN(CC(=O)OCC(=O)NC1CCCC1)S(=O)(=O)c1ccc(Cl)cc1,"inconclusive: 32.6 µM [rising, single point]",
CCOC(=O)/C(=C/c1ccc(OC(F)F)cc1)C1=Nn2c(nnc2-c2ccc(Cl)cc2)SC1,"inconclusive: 29.1 µM [cytotoxic, single point]",
CC12C=CC(=O)C=C1CCC1C2CCC2(C)C(C(=O)CO)CCC12 (stereo not given),"inconclusive: 29.1 µM [cytotoxic, single point]",
Cc1ccc2c(c1)c1c3n2CCN=C3CCC1,"inconclusive: 20.6 µM [cytotoxic, single point]",

Compound,Potency,"activity change, negative = cytotoxic"
O=c1c2ccccc2cnn1Cc1nnc(-c2cccs2)o1,,inactive: 16.5%
COc1ccc(/C=C/C(=O)c2ccccc2O)cc1CN1CCOCC1,"inconclusive: 29.1 µM [cytotoxic, single point]",
Cc1cc(S(=O)(=O)Nc2cc3c(cc2N2CCOCC2)n(C)c(=O)c(=O)n3C)ccc1F,,inactive: 13.7%
O=S(=O)(CC(CN1CCCCC1)N1CCCCC1)c1ccc2ccccc2c1 (stereo not given),active: 6.51 µM,
NC(=O)c1ccc(NC(=O)C#Cc2ccccc2)cc1,active: 23.1 µM,
CCCOc1ccc(N2C(=O)CC(N(CCc3ccc(OC)cc3)C(=O)c3cccc(F)c3)C2=O)cc1 (stereo not given),"inconclusive: 29.1 µM [cytotoxic, single point]",
COCCn1c(C)nnc1SCC(=O)Nc1ccccc1[N+](=O)[O-],"inconclusive: 2.59 µM [rising, partial curve, poor fit]",
OC(COCC1CC=CCC1)Cn1cnc2ccccc21 (stereo not given),,inactive: -20.8%
O=C(N/N=C/c1ccc2c(c1)OCO2)c1cc(-c2ccccc2)nc2ccccc12,"inconclusive: 25.9 µM [cytotoxic, single point]",
Cc1cc(C)n2ncc(/C(N)=N/OC(=O)c3ccccc3F)c2n1,,inactive: -5.6%
COc1ccc(-c2[nH]c(-c3ccc(C)cc3)nc2SCC(=O)Nc2nccs2)cc1,"inconclusive: 29.1 µM [cytotoxic, single point]",
Cc1cccc(C(=O)N2CCc3cc(CNC(=O)c4ccco4)ccc32)c1,"inconclusive: 29.1 µM [cytotoxic, single point]",
COc1ccc(OCC(=O)Nc2ccc(OC)c(S(=O)(=O)N3CCCCC3)c2)cc1,active: 20.6 µM,
O=S(=O)(c1ccc2ccccc2c1)N1CCC(c2nc(-c3ccncc3)no2)CC1,,inactive: -6.78%
O=C(CCOc1ccccc1F)N1CCN(c2ccccc2O)CC1,,inactive: -3.19%
CCOc1ccc(C2OCCC(C)O2)cc1OC (stereo not given),,inactive: 1.67%
COC(=O)C(Cc1ccccc1)NC(=O)CNC(=O)c1ccccc1OC (stereo not given),,inactive: 1.44%
Cn1c(=O)c2c(-c3ccccc3)n3c(c2n(C)c1=O)C(c1ccc([N+](=O)[O-])cc1)Nc1ccccc1-3 (stereo not given),"inconclusive: 3.26 µM [cytotoxic, partial curve, poor fit]",
COc1ccc(OC)c(N/C=C/C(=C(C#N)C#N)N(C)C)c1,active: 16.4 µM,
Cc1nc2c(=O)n(C)c(=O)n(C)c2nc1Cl,active: 14.6 µM,
CC(=O)Nc1cccc(-c2ccnc3c2CC(C(=O)NCc2ccc(N(C)C)cc2)O3)c1 (stereo not given),"inconclusive: 18.4 µM [cytotoxic, single point]",
O=C(C1CC=CCC1)N1CCC(CO)(Cc2ccc(Cl)cc2)CC1 (stereo not given),"inconclusive: 18.4 µM [cytotoxic, single point]",
COc1cc(OC)cc(C(=O)Nc2ccc3c(c2)CCCN3C(=O)c2cccs2)c1,"inconclusive: 29.1 µM [cytotoxic, single point]",
COc1ccc(C(C)=O)cc1CSc1nnc(Nc2ccccc2)s1,"inconclusive: 18.4 µM [cytotoxic, single point]",

Compound,Potency,"activity change, negative = cytotoxic"
COc1ccc(-n2cc(-c3ccccc3)[nH]c2=S)c(OC)c1,active: 16.4 µM,
CCOC(=O)C1CCN(C(=O)C2CCN(S(=O)(=O)c3c(C)noc3/C=C/c3ccc(C)cc3)CC2)CC1,"inconclusive: 0.651 µM [cytotoxic, full curve, poor fit]",
CCOc1ccc(C2c3cc(OC)c(OC)cc3CC(=O)N2c2ccc(OC)cc2)cc1 (stereo not given),active: 18.4 µM,
O=S(=O)(CC12C3C4C5C1C2C(Br)(C43)C51OCCO1)c1ccccc1 (stereo not given),,inactive: -1.18%
CC(C)OC(=O)c1ccc(COC(=O)CNC(=O)c2ccco2)cc1,"inconclusive: 29.1 µM [rising, single point]",
COc1ccc(-c2ccc(SC)nn2)cc1,active: 8.2 µM,
CCOC(=O)c1c(NC(=O)CN2CCCCC2)sc2c1CCCC2O (stereo not given),"inconclusive: 29.1 µM [cytotoxic, single point]",
COc1cc(CN(CCc2c(C)[nH]c3ccc(C)cc23)C(=S)NC(C)(C)C)cc(OC)c1OC,"inconclusive: 6.51 µM [cytotoxic, partial curve, poor fit]",
O=C(/C=C/c1c(Cl)nc2ccccn12)Nc1ccc(F)cc1,,inactive: -0.366%
CCOC(=O)c1c(-c2cccc(C)c2)csc1NC(=O)c1c(-c2ccccc2)noc1C,active: 5.17 µM,
NC(=S)NC1CC2CC1C1C=CCC21 (stereo not given),,inconclusive: 0.863%
CSCC(=O)N1CCc2ccc(NC(=O)c3ccccc3Cl)cc2C1,"inconclusive: 29.1 µM [cytotoxic, single point]",
COc1ccc(CNC(=O)c2cc3cccc(OC)c3oc2=N)cc1,"inconclusive: 20.6 µM [cytotoxic, partial curve]",
CCCCCCCn1ccc(=N)cc1,active: 4.61 µM,
CC(C)C[C@@H](CO)N(Cc1ccccc1)S(=O)(=O)N(Cc1ccccc1)[C@H](CO)CC(C)C,"inconclusive: 20.6 µM [cytotoxic, single point]",
COc1ccc(C2CC(=O)CCN2S(=O)(=O)c2ccc(C)cc2)cc1 (stereo not given),,inactive: 0%
N#C/C(=C/c1ccc(Br)s1)C(=O)NCCc1c[nH]c2ccccc12,"inconclusive: 18.4 µM [cytotoxic, partial curve]",
O=C(Cc1ccccc1)N1CCNCC1,,inactive: -3.7%
CC(C)(C)Cc1nc2ccccc2n1CCc1ccccc1,"inconclusive: 29.1 µM [cytotoxic, single point]",
Fc1ccccc1COc1ccc(Br)cc1CNCc1ccncc1,"inconclusive: 23.1 µM [cytotoxic, single point]",
Cc1cc2c(c(C)c1CCO[C@@H]1O[C@H](CO)[C@@H](O)[C@H](O)[C@H]1O)C(=O)[C@@H](C)[C@@H]2O,"inconclusive: 29.1 µM [cytotoxic, single point]",
COc1ccc(NS(=O)(=O)c2ccc(N3CCOCC3)c(NC(=O)C(C)C)c2)cc1,"inconclusive: 23.1 µM [cytotoxic, partial curve, poor fit]",

# Four structures already listed, sorted by number of heavy atoms, ascending:
Compound,Potency,"activity change, negative = cytotoxic"
O=S(=O)(CC12C3C4C5C1C2C(Br)(C43)C51OCCO1)c1ccccc1 (stereo not given),,inactive: -1.18%
CCOC(=O)c1c(NC(=O)CN2CCCCC2)sc2c1CCCC2O (stereo not given),"inconclusive: 29.1 µM [cytotoxic, single point]",
CC(C)C[C@@H](CO)N(Cc1ccccc1)S(=O)(=O)N(Cc1ccccc1)[C@H](CO)CC(C)C,"inconclusive: 20.6 µM [cytotoxic, single point]",
COc1cc(CN(CCc2c(C)[nH]c3ccc(C)cc23)C(=S)NC(C)(C)C)cc(OC)c1OC,"inconclusive: 6.51 µM [cytotoxic, partial curve, poor fit]",
